Source: publication PMC8862006
Like-named read-outs stand apart in the source and are kept apart here. Results are given in words; binding and its absence hold for the method and conditions named. In cells and extracts the contact can be indirect. Some entries that bind do so weakly or less than the wild type.

Chains of the proteins cited; added tags and fusions are not shown.
UniProt P03071: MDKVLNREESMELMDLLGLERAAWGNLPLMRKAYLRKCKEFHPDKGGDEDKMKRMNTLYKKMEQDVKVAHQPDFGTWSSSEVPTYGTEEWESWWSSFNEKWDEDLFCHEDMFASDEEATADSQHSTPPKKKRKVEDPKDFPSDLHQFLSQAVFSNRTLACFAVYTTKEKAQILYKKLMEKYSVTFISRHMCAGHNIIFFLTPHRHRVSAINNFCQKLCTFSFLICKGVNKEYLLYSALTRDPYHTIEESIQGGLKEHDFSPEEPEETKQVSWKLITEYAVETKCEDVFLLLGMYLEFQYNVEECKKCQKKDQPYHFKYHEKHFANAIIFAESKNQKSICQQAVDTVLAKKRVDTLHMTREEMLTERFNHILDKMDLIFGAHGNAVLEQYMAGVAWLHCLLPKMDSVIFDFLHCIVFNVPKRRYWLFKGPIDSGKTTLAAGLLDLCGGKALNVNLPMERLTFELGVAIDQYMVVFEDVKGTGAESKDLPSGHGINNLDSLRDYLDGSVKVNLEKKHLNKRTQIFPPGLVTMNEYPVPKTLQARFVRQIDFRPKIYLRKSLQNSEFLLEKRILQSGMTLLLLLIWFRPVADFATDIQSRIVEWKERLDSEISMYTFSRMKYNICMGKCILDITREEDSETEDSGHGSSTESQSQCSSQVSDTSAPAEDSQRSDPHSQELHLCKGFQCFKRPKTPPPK
UniProt Q06609: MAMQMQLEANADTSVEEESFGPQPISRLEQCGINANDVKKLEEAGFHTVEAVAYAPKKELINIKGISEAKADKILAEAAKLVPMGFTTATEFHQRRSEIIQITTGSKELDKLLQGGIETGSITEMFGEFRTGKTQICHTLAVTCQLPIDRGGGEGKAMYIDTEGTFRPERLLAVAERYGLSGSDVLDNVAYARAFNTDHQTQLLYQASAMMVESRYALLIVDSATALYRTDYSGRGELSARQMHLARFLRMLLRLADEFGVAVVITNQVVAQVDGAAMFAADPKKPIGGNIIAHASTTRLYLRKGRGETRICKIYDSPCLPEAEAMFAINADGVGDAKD

What was measured:
[1] = target: BK polyomavirus (BKPyV) Large T antigen (BK polyomavirus (Dunlop strain)) (UniProt P03071); test: proximity ligation; Duolink In Situ Red kit; BKPyV-infected differentiated NHU cell cultures on glass 12-well slides, fixed in 10% neutral buffered formalin, permeabilised in PBS with 0.5% Triton X-100
[2] = target: BK polyomavirus (BKPyV) Large T antigen (BK polyomavirus (Dunlop strain)) (UniProt P03071); test: as above; remark: listed apart in the source

Row | Molecule | binding [1] | binding [2]
1 | Rad51 (from UniProt Q06609 1-339) | binds | 
2 | phospho-Retinoblastoma protein (protein, UniProt P06400 1-928, phosphorylated (phospho-pRb)) MPPKTPRKTAATAAAAAAEPPAPPPPPPPEEDPEQDSGPEDLPLVRLEFEETEEPDFTALCQKLKIPDHVRERAWLTWEKVSSVDGVLGGYIQKKKELWGICIFIAAVDLDEMSFTFTELQKNIEISVHKFFNLLKEIDTSTKVDNAMSRLLKKYDVLFALFSKLERTCELIYLTQPSSSISTEINSALVLKVSWITFLLAKGEVLQMEDDLVISFQLMLCVLDYFIKLSPPMLLKEPYKTAVIPINGSPRTPRRGQNRSARIAKQLENDTRIIEVLCKEHECNIDEVKNVYFKNFIPFMNSLGLVTSNGLPEVENLSKRYEEIYLKNKDLDARLFLDHDKTLQTDSIDSFETQRTPRKSNLDEEVNVIPPHTPVRTVMNTIQQLMMILNSASDQPSENLISYFNNCTVNPKESILKRVKDIGYIFKEKFAKAVGQGCVEIGSQRYKLGVRLYYRVMESMLKSEEERLSIQNFSKLLNDNIFHMSLLACALEVVMATYSRSTSQNLDSGTDLSFPWILNVLNLKAFDFYKVIESFIKAEGNLTREMIKHLERCEHRIMESLAWLSDSPLFDLIKQSKDREGPTDHLESACPLNLPLQNNHTAADMYLSPVRSPKKKGSTTRVNSTANAETQATSAFQTQKPLKSTSLSLFYKKVYRLAYLRLNTLCERLLSEHPELEHIIWTLFQHTLQNEYELMRDRHLDQIMMCSMYGICKVKNIDLKFKIIVTAYKDLPHAVQETFKRVLIKEEEYDSIIVFYNSVFMQRLKTNILQYASTRPPTLSPIPHIPRSPYKFPSSPLRIPGGNIYISPLKSPYKISEGLPTPTKMTPRSRILVSIGESFGTSEKFQKINQMVCNSDRVLKRSAEGSNPPKPLKKLRFDIEGSDEADGSKHLPGESKFQQKLAEMTSTRTRMQKQKMNDSMDTSNKEEK |  | binds
